Measured values taken from PubChem BioAssay AID2551 (National Center for Advancing Translational Sciences (NCATS), 2010).
The whole screen tested about 310,000 compounds, of which about 17,000 (5.5%) were called active. This list was built around the results that the source calls inconclusive (neither active nor inactive); the mix of calls is not that of the screen. The call rests on the fitted dose curve; in most records, active means well fitted inhibition curve with a large enough effect; inconclusive means small, poorly fitted or top-dose-only effect, or effect the other way; inactive means no such curve, though single readings can be large or run the other way. A potency beside an inconclusive call is a rough fit, not a confirmed value.

Sequences of proteins named here, by UniProt entry; tags and fusion partners are left off. A change or cut given only in a name is not applied to a line headed by its entry.
UniProt P51450: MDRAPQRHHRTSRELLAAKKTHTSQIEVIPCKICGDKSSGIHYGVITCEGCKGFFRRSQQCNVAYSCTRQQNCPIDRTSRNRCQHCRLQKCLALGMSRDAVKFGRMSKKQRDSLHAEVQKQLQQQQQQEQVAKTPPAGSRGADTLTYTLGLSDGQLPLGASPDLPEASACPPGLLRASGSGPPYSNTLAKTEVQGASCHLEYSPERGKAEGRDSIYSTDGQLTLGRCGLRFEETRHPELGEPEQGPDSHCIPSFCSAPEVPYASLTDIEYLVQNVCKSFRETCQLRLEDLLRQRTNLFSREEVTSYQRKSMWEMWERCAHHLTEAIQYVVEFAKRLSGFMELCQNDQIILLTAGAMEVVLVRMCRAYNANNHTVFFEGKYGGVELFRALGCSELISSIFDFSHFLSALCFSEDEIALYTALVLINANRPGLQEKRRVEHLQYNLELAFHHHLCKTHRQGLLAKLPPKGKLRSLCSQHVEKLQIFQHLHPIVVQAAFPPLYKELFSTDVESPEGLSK

target: Nuclear receptor ROR-gamma (Mus musculus) (UniProt P51450); experiment: qHTS for inhibitors of ROR gamma transcriptional activity; settings: Drosophila S2 Gal4-RORgamma UAS-luciferase reporter, 20 h; activity change, negative = inhibition: at 53.6 µM (top of the series); further: nearly all actives have a fitted effect of over 60% in size
How it was run: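 A Gal4/UAS one-hybrid system in insect cells: metallothionein-promoter Gal4–ROR gamma fusion plus Photinus luciferase reporter. Copper sulfate 700 uM final, 20 hr ambient incubation, luminescent detection after 10 min with reagent.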
On the % scale 0 is the no-effect control and ±100 the full control effect; potency means the concentration at half of the fitted maximal effect.

Compound | Potency | activity change, negative = inhibition
Clc1ccc(COc2cccc(CNCc3ccncc3)c2)cc1 | inconclusive: 35.5 µM [inhibitor, single point] | 
Cc1ccc(CNC(=O)C2CCCN(S(=O)(=O)c3c(C)n[nH]c3C)C2)cc1 (configuration not stated) |  | inactive: 5.63%
COc1cccc(NC(=O)c2oc3ccc(S(=O)(=O)N4CCOCC4)cc3c2C)c1 | inconclusive: 35.5 µM [activator, single point] | 
C=C(C)CNC(=S)N/N=C(\C)c1ccc(-n2ccnc2)cc1 | active: 6.31 µM | 
CN1CCc2c(sc(NC(=O)c3ccc(S(=O)(=O)N4CCCC4)cc3)c2C(N)=O)C1 |  | inactive: -38%
CC(=O)Nc1ccc(C2=NN(C)C(=NCc3ccccc3)SC2)cc1 |  | inactive: 0.095%
COc1ccc(C(=O)NCCNc2ccc([N+](=O)[O-])cc2)cc1OC | inconclusive: 28.2 µM [inhibitor, single point] | 
[O-]/C(=C(\C(=S)Nc1ccc(SC(F)F)cc1)[n+]1cccc(CO)c1)c1ccc(Cl)s1 | inconclusive: 20 µM [inhibitor, single point] | 
CNC(=O)N(C1=NCC(C)S1)c1ccc(F)cc1F (configuration not stated) | inconclusive: 6.31 µM [inhibitor, partial curve] | 
COc1cc(-c2nc3cnccn3c2Nc2ccc(C(C)C)cc2)ccc1O | active: 14.1 µM | 
Cc1cc(C)nc(-n2nc(C)c(Br)c2Nc2ccc(Br)cc2)n1 | inconclusive: 28.2 µM [inhibitor, single point] | 
OCCC1CN(Cc2cnc(-c3ccccc3)s2)CCN1C1CCCCC1 (configuration not stated) |  | inactive: -4%
CC(=O)Nc1ccccc1C(=O)C(=O)Nc1ccc(F)c(Cl)c1 | inconclusive: 2.82 µM [activator, single point] | 
CCc1ccc(C2=NN(CCC(=O)NCc3cccs3)C(=O)CC2)cc1 | inconclusive: 35.5 µM [activator, single point] | 
Nc1nc(CN2CCN(c3ccccc3F)CC2)nc(N2CCCc3ccccc32)n1 | active: 11.2 µM | 
CCOc1cccc(C=NCCc2ccc(OC)c(OC)c2)c1O | inconclusive: 11.2 µM [inhibitor, single point] | 
O=C(COc1ccc(Cl)cc1Cl)N/N=C/c1ccc[nH]1 | active: 2.82 µM | 
CNS(=O)(=O)c1ccc(NC(=O)c2ccc(Cl)cc2Cl)cc1 | inconclusive: 20 µM [activator, single point] | 
CS(=O)(=O)c1ccc(CNC(=O)[C@@H]2C[C@H]2[C@@H](NP(=O)(c2ccccc2)c2ccccc2)c2ccccc2)cc1 | inconclusive: 14.1 µM [activator, single point] | 
COc1ccc(NC(=S)N2CCc3ccccc3C2)cc1OC | active: 11.2 µM | 
O=C(N/N=C/c1cn(-c2cccs2)nc1-c1ccccc1)c1ccccc1Cl | active: 3.55 µM | 
O=C(NC(=S)Nc1ncccn1)c1ccc(F)cc1 | inconclusive: 20 µM [inhibitor, single point] | 
Cc1ccccc1NC(=S)NCCSc1ccc(Cl)cc1 | active: 2.24 µM | 
Cc1cccc(C(=O)Nc2sc3c(c2C(=O)O)CCCC3)c1 |  | inactive: 15.8%

Compound | Potency | activity change, negative = inhibition
COc1ccc(/C=N/Nc2nnc(C)n2N)cc1OC | active: 11.2 µM | 
C#CCNC(=O)C1=C[C@@H](c2ccccc2)[C@H](CCCO)[C@@H](OCC)O1 | inconclusive: 31.6 µM [activator, single point] | 
Clc1ccccc1CN(Cc1ccccc1)c1ncnc2nc[nH]c12 | inconclusive: 35.5 µM [inhibitor, single point] | 
COc1cc(NC(=O)c2cccs2)c(OC)cc1NC(=O)Nc1ccc(F)cc1 | inconclusive: 11.2 µM [activator, partial curve] | 
Cc1ccc(S(=O)(=O)C(C#N)c2nc3ccccc3nc2N2CC(C)OC(C)C2)cc1C (configuration not stated) | inconclusive: 17.8 µM [activator, single point] | 
COc1cc(Br)cc(/C=N/NC(=O)Cc2ccc(C(F)(F)F)cc2[N+](=O)[O-])c1O | active: 0.141 µM | 
N/C(COc1ccc(Cl)cc1Cl)=N\O | inconclusive: 0.0045 µM [inhibitor, full curve] | 
O=S(NCc1ccccc1)C12CC3CC(CC(C3)C1)C2 (configuration not stated) | inconclusive: 2.24 µM [inhibitor, partial curve] | 
CCCCC(C(=O)NC1CCCC1)N(C(=O)c1snc(C(N)=O)c1N)c1ccc(OCC)cc1 (configuration not stated) | inconclusive: 12.6 µM [activator, single point] | 
O=C(CSc1nnc(-c2ccncc2)o1)c1cccc([N+](=O)[O-])c1 |  | inactive: -41.2%
Nc1ccccc1C(=O)NNC(=O)C(=O)/C=C(\O)c1ccccc1 | active: 11.2 µM | 
Cc1nc2ccccc2c(=O)n1/N=C/c1ccccc1O | inconclusive: 12.6 µM [inhibitor, single point] | 
COc1ccc(S(=O)(=O)n2nc(-c3cc(OC)c(OC)c(OC)c3)cc2N)cc1OC | inconclusive: 12.6 µM [activator, partial curve] | 
Cn1nc(-c2ccc(N3CCN(CCO)CC3)c([N+](=O)[O-])c2)c2ccccc2c1=O | inconclusive: 12.6 µM [inhibitor, single point] | 
O=C(CSc1nccn1Cc1ccccc1)Nc1nccs1 |  | inactive: 0.971%
CC(C)Cc1c(O)nc(SCC(=O)Nc2ccc3c(c2)CCC3)[nH]c1=O | inconclusive: 10 µM [activator, partial curve] | 
CCc1ccc(N(CC(=O)NC(C)(C)CC)C(=O)CCC(=O)Nc2nccs2)cc1 | inconclusive: 1.78 µM [activator, partial curve] | 
COCCn1c(=NC(=O)c2cc(-c3cccs3)nc3ccccc23)sc2cc(S(N)(=O)=O)ccc21 | inconclusive: 10 µM [activator, partial curve] | 
CCOC(=O)Nc1cc(NC(=O)OCC)c(C)nc1C | inconclusive: 7.08 µM [activator, partial curve] | 
COC(=O)c1c(NC(=O)CCS(=O)(=O)c2ccccc2)sc2c1CCN(C)C2 |  | inactive: -25.3%
CCOc1ccc(-c2ccc(/C=C3/C(=N)N4C=CSC4=NC3=O)o2)c([N+](=O)[O-])c1 | active: 2.51 µM | 
CC(C)Cc1nnc(NC(=O)c2cc(S(=O)(=O)N(C)C)ccc2N2CCCC2)s1 | inconclusive: 17.8 µM [inhibitor, single point] | 
CCOc1ccccc1NC(=O)CSc1nnc(CNC(=O)c2ccccc2F)o1 | inconclusive: 12.6 µM [activator, single point] | 
CCc1nnc(NC(=O)c2ccc(N(C)S(=O)(=O)c3ccccc3)cc2)s1 | inconclusive: 0.355 µM [activator, full curve] | 

Structures listed so far that have bromine:
Compound | Potency | activity change, negative = inhibition
Cc1cc(C)nc(-n2nc(C)c(Br)c2Nc2ccc(Br)cc2)n1 | inconclusive: 28.2 µM [inhibitor, single point] | 
COc1cc(Br)cc(/C=N/NC(=O)Cc2ccc(C(F)(F)F)cc2[N+](=O)[O-])c1O | active: 0.141 µM | 

(cont.)

Compound | Potency | activity change, negative = inhibition
COc1ccc(-c2n[nH]c(C)c2-c2ccc(Cl)cc2)c(O)c1OC | active: 7.08 µM | 
O=C(O)c1coc2ccccc12 | inconclusive: 17.8 µM [inhibitor, partial curve] | 
CC(=O)n1cc(N(C(=O)CCl)c2ccc([N+](=O)[O-])cc2)c2ccccc21 | inconclusive: 35.5 µM [inhibitor, single point] | 
O=C1NC2(CCCCC2)N=C1c1ccc(F)cc1 |  | inactive: 0.963%
CN1CCN(CC(=O)Nc2ccc([N+](=O)[O-])cc2Br)CC1 |  | inactive: 15.7%
COc1cccc(NC(=S)N2c3ccccc3CC2C)c1 (configuration not stated) | active: 22.4 µM | 
C/C(=N\NC(=O)c1cccc(Br)c1)c1ccc(Br)cc1 | inconclusive: 0.282 µM [activator, full curve, poor fit] | 
C=CCNc1oc(-c2cccs2)nc1C#N | inconclusive: 3.55 µM [activator, partial curve, poor fit] | 
CCCc1nc2ccccc2c(=O)n1CC(=O)c1ccccc1 |  | inactive: 10.6%
CC1CCCCN1CCn1c(=S)[nH]c2cc3c(cc2c1=O)OCO3 (configuration not stated) | active: 11.2 µM | 
COCCNC(=O)CSc1nc2cc3c(cc2c(=O)n1Cc1ccco1)OCO3 | inconclusive: 5.01 µM [activator, full curve] | 
COc1cc(NC(=O)c2ccccc2)c(OC)cc1NC(=O)CN1CCOCC1 |  | inactive: 3.33%
O=C(NCC1CCCO1)c1cc2c([nH]c3ccccc32)c(-c2ccc(F)cc2)n1 (configuration not stated) | inconclusive: 12.6 µM [activator, single point] | 
CC(C)CC(NC(=O)CCl)c1ccccc1 (configuration not stated) |  | inactive: -18.7%
O=C(NCc1ccco1)c1ccc(CS(=O)(=O)c2cccc(C(F)(F)F)c2)o1 | inconclusive: 12.6 µM [activator, partial curve] | 
Cc1cccc(CN(CC(=O)N/N=C/c2cccs2)S(=O)(=O)c2ccc(Cl)cc2)c1 | inconclusive: 2.82 µM [inhibitor, partial curve, poor fit] | 
O=C1c2ccccc2C(=O)N1c1cc([N+](=O)[O-])ccn1 | inconclusive: 35.5 µM [inhibitor, single point] | 
C=CCOC(=O)C1=C(C)NC(C)=C(C(=O)OCC=C)C1/C=C/c1ccccc1 | inconclusive: 17.8 µM [activator, partial curve] | 
COc1ccc(N2CCN(S(=O)(=O)c3ccc4c(c3)N(C(C)=O)CCO4)CC2)cc1 |  | inactive: 17.5%
Cc1c(C(=O)N2CCN(c3ccc(F)cc3)CC2)sc2nc(-c3ccccc3)cn12 |  | inactive: 6.97%
CCCCSc1nnc(-c2ccc(C)cc2)o1 | inconclusive: 35.5 µM [inhibitor, single point] | 
Cc1ccccc1C(=O)c1cccn1CC(=O)NCCN1CCN(c2cccc(C)c2C)CC1 | inconclusive: 11.2 µM [inhibitor, single point] | 
COc1ccc(S(=O)(=O)N2CCOCC2)cc1NC(=O)CSc1nnc2ccccn12 |  | inactive: 12%
COC(=O)C1CCN(C(=O)/C=C/c2ccccc2)CC1 |  | inactive: -7.14%
